Measurements reported in PubChem BioAssay AID504784 (Drosophila RNAi Screening Center, 2011).
Aim: 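Fly genes whose silencing alters how much lipid cells keep in droplets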 (primary screen). System: Drosophila Kc167 embryonic cells. Reagents: long dsRNA against Drosophila genes, about 250 ng dsRNA per well. Time to read-out: 4 days. Conditions: cells fed 400 µM oleic acid bound to BSA. Read-out: 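Microscope images give a droplet-to-nucleus area ratio, taken as log and converted to a screen-wide B-score; higher values mean greater lipid storage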. Direction: droplet/nuclear area B-score: higher = more stored lipid (overstorage).
The screen tested about 17,000 reagents; this is an unselected part of those with a known target gene and a result. 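Each column is one replicate's B-score; the combined score over replicates was not deposited, so single values may mislead.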 Further read-outs or replicates are left out here.

With CG17266 [DRSC04979], how do the results read?
droplet/nuclear area B-score, replicate 1: -0.459

What is on record for CG17266 [DRSC22368]?
droplet/nuclear area B-score, replicate 1: 0.708

How did the screen score Ugt302E1 (UDP-glycosyltransferase family 302 member E1) [DRSC15635]?
droplet/nuclear area B-score, replicate 1: 4.38

How did the screen score CG31207 [DRSC21886]?
droplet/nuclear area B-score, replicate 1: -2.04

For Rel (Relish) [DRSC16819], what does the deposit list?
droplet/nuclear area B-score, replicate 1: -0.106

For CG17560 [DRSC15242], what does the deposit list?
droplet/nuclear area B-score, replicate 1: -0.937

How did the screen score Trf5 (TBP-related factor 5) [DRSC00412]?
droplet/nuclear area B-score, replicate 1: -2.06

What is on record for CG1317 [DRSC08305]?
droplet/nuclear area B-score, replicate 1: -1.13

What did the screen give for Cyp4d14 (Cytochrome P450 4d14) [DRSC18457]?
droplet/nuclear area B-score, replicate 1: 0.846

With CHES-1-like (Checkpoint suppressor 1-like) [DRSC18447], how do the results read?
droplet/nuclear area B-score, replicate 1: 3.06

What did the screen give for TBC1D5 (TBC1 domain family member 5) [DRSC16421]?
droplet/nuclear area B-score, replicate 1: -0.855

With tst (twister) [DRSC14212], how do the results read?
droplet/nuclear area B-score, replicate 1: 0.352

With fau [DRSC12816], what was measured?
droplet/nuclear area B-score, replicate 1: 2.24

How did the screen score fau [DRSC12817]?
droplet/nuclear area B-score, replicate 1: 0.165

How did the screen score fau [DRSC16943]?
droplet/nuclear area B-score, replicate 1: -0.112

What is on record for fau [DRSC16944]?
droplet/nuclear area B-score, replicate 1: 0.117

With fau [DRSC16945], how do the results read?
droplet/nuclear area B-score, replicate 1: 0.0372

How did the screen score fau [DRSC22360]?
droplet/nuclear area B-score, replicate 1: -0.807

For qless [DRSC15103], what does the deposit list?
droplet/nuclear area B-score, replicate 1: 1.4

Which result is listed for qless [DRSC15507]?
droplet/nuclear area B-score, replicate 1: 1.04

How did the screen score CG2750 [DRSC19867]?
droplet/nuclear area B-score, replicate 1: 0.265

What is on record for CG4115 [DRSC15545]?
droplet/nuclear area B-score, replicate 1: 0.152

With roh (reduction of Rh1) [DRSC04003], what was measured?
droplet/nuclear area B-score, replicate 1: 1.41

For CG4324 [DRSC04462], what does the deposit list?
droplet/nuclear area B-score, replicate 1: -0.284

For EndoG (Endonuclease G) [DRSC07292], what does the deposit list?
droplet/nuclear area B-score, replicate 1: -0.428

What did the screen give for EndoG (Endonuclease G) [DRSC22746]?
droplet/nuclear area B-score, replicate 1: 0.838

What is on record for CG43325 [DRSC04157]?
droplet/nuclear area B-score, replicate 1: 0.0587

For Usp2 (Ubiquitin specific protease 2) [DRSC20590], how do the results read?
droplet/nuclear area B-score, replicate 1: 0.294

For Usp2 (Ubiquitin specific protease 2) [DRSC20632], what does the deposit list?
droplet/nuclear area B-score, replicate 1: -0.737

What is on record for Usp2 (Ubiquitin specific protease 2) [DRSC20633]?
droplet/nuclear area B-score, replicate 1: -0.857

For CG9062 [DRSC07327], what was measured?
droplet/nuclear area B-score, replicate 1: 0.0242

For mfr (misfire) [DRSC10543], how do the results read?
droplet/nuclear area B-score, replicate 1: 1.55

Which result is listed for CG15602 [DRSC19671]?
droplet/nuclear area B-score, replicate 1: 0.118

What did the screen give for CG11367 [DRSC22434]?
droplet/nuclear area B-score, replicate 1: 0.468

For dpr17 (defective proboscis extension response 17) [DRSC12885], how do the results read?
droplet/nuclear area B-score, replicate 1: -0.314

With dpr17 (defective proboscis extension response 17) [DRSC14957], what does the deposit list?
droplet/nuclear area B-score, replicate 1: 4.72

With dpr17 (defective proboscis extension response 17) [DRSC14958], how do the results read?
droplet/nuclear area B-score, replicate 1: 1.4

What did the screen give for CG32110 [DRSC09220]?
droplet/nuclear area B-score, replicate 1: 1.84

What did the screen give for Mmp1 (Matrix metalloproteinase 1) [DRSC04493]?
droplet/nuclear area B-score, replicate 1: -1.27

Which result is listed for Ctns (Cystinosin) [DRSC15175]?
droplet/nuclear area B-score, replicate 1: -0.324

Targets listed so far whose gene name starts with F or f (6):
fau [DRSC12816]: droplet/nuclear area B-score, replicate 1 = 2.24
fau [DRSC12817]: droplet/nuclear area B-score, replicate 1 = 0.165
fau [DRSC16943]: droplet/nuclear area B-score, replicate 1 = -0.112
fau [DRSC16944]: droplet/nuclear area B-score, replicate 1 = 0.117
fau [DRSC16945]: droplet/nuclear area B-score, replicate 1 = 0.0372
fau [DRSC22360]: droplet/nuclear area B-score, replicate 1 = -0.807
